From article PMC13446905
These are yes or no findings as the source states them, for the method shown. In cells and extracts the contact can be indirect. A yes stands for co-enrichment or nearness to the bait. Other partners may have been found.

Sequences of proteins named here, by UniProt entry; tags and fusion partners are left off.
UniProt Q5S007: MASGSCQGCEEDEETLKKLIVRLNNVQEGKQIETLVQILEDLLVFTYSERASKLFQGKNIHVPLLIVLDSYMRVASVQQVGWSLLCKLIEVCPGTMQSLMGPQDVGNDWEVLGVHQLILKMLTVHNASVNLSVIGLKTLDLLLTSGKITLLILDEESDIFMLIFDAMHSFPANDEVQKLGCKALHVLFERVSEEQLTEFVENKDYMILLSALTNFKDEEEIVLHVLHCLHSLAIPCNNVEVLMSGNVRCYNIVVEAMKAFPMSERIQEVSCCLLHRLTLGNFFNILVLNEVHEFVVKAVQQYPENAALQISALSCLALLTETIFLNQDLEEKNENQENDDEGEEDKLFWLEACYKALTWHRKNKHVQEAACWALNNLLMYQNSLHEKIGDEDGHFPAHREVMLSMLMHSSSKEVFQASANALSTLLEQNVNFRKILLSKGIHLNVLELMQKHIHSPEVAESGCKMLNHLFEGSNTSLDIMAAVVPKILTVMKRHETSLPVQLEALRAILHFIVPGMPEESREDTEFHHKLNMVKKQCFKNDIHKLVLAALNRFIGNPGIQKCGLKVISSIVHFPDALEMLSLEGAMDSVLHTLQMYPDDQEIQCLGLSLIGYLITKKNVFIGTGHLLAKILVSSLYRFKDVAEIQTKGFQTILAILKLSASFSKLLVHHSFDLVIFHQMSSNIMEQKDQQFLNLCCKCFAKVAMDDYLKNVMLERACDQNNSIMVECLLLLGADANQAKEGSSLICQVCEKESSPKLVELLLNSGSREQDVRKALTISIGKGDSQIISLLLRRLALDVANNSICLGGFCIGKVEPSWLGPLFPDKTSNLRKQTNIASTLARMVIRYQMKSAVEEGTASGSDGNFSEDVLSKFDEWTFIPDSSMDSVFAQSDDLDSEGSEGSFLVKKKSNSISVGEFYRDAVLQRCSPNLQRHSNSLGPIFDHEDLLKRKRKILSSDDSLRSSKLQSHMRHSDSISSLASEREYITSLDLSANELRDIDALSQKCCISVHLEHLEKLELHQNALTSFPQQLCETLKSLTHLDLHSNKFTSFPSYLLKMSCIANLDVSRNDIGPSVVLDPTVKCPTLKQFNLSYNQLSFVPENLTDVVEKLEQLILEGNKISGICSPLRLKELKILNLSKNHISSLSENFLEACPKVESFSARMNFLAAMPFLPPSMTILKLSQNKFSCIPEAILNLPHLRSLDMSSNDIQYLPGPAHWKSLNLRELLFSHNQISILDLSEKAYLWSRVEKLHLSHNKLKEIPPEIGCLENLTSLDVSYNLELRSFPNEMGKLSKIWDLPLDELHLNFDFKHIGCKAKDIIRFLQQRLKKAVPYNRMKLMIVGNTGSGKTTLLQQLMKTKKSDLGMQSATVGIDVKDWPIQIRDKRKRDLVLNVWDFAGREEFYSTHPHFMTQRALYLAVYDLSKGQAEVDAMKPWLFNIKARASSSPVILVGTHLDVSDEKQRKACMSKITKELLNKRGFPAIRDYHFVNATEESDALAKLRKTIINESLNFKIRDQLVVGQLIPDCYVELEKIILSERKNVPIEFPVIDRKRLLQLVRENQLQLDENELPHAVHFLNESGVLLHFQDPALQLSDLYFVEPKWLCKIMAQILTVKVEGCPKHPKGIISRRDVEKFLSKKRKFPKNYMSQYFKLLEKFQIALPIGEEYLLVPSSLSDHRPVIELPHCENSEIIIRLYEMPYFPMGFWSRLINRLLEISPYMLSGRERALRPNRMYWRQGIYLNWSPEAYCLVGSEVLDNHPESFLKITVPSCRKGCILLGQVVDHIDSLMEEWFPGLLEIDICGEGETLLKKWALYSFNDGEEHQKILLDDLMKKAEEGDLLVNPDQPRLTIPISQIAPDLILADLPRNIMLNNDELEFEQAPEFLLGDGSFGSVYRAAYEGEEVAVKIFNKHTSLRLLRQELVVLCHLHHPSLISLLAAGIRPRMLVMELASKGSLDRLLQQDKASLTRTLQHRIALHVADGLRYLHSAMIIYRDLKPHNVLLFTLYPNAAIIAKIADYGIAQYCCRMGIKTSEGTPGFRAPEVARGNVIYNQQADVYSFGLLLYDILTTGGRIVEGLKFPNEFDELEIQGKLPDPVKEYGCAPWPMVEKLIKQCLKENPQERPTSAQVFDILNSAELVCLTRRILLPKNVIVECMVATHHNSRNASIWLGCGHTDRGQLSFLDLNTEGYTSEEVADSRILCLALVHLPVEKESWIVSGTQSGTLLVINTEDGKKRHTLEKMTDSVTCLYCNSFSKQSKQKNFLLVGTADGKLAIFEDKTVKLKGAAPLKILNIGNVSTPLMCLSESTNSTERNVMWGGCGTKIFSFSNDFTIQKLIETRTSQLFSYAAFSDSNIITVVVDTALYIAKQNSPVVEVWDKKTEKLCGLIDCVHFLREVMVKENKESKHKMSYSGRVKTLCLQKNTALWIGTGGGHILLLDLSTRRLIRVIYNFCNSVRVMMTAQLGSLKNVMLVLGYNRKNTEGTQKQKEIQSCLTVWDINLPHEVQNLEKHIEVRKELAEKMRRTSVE
UniProt P21333: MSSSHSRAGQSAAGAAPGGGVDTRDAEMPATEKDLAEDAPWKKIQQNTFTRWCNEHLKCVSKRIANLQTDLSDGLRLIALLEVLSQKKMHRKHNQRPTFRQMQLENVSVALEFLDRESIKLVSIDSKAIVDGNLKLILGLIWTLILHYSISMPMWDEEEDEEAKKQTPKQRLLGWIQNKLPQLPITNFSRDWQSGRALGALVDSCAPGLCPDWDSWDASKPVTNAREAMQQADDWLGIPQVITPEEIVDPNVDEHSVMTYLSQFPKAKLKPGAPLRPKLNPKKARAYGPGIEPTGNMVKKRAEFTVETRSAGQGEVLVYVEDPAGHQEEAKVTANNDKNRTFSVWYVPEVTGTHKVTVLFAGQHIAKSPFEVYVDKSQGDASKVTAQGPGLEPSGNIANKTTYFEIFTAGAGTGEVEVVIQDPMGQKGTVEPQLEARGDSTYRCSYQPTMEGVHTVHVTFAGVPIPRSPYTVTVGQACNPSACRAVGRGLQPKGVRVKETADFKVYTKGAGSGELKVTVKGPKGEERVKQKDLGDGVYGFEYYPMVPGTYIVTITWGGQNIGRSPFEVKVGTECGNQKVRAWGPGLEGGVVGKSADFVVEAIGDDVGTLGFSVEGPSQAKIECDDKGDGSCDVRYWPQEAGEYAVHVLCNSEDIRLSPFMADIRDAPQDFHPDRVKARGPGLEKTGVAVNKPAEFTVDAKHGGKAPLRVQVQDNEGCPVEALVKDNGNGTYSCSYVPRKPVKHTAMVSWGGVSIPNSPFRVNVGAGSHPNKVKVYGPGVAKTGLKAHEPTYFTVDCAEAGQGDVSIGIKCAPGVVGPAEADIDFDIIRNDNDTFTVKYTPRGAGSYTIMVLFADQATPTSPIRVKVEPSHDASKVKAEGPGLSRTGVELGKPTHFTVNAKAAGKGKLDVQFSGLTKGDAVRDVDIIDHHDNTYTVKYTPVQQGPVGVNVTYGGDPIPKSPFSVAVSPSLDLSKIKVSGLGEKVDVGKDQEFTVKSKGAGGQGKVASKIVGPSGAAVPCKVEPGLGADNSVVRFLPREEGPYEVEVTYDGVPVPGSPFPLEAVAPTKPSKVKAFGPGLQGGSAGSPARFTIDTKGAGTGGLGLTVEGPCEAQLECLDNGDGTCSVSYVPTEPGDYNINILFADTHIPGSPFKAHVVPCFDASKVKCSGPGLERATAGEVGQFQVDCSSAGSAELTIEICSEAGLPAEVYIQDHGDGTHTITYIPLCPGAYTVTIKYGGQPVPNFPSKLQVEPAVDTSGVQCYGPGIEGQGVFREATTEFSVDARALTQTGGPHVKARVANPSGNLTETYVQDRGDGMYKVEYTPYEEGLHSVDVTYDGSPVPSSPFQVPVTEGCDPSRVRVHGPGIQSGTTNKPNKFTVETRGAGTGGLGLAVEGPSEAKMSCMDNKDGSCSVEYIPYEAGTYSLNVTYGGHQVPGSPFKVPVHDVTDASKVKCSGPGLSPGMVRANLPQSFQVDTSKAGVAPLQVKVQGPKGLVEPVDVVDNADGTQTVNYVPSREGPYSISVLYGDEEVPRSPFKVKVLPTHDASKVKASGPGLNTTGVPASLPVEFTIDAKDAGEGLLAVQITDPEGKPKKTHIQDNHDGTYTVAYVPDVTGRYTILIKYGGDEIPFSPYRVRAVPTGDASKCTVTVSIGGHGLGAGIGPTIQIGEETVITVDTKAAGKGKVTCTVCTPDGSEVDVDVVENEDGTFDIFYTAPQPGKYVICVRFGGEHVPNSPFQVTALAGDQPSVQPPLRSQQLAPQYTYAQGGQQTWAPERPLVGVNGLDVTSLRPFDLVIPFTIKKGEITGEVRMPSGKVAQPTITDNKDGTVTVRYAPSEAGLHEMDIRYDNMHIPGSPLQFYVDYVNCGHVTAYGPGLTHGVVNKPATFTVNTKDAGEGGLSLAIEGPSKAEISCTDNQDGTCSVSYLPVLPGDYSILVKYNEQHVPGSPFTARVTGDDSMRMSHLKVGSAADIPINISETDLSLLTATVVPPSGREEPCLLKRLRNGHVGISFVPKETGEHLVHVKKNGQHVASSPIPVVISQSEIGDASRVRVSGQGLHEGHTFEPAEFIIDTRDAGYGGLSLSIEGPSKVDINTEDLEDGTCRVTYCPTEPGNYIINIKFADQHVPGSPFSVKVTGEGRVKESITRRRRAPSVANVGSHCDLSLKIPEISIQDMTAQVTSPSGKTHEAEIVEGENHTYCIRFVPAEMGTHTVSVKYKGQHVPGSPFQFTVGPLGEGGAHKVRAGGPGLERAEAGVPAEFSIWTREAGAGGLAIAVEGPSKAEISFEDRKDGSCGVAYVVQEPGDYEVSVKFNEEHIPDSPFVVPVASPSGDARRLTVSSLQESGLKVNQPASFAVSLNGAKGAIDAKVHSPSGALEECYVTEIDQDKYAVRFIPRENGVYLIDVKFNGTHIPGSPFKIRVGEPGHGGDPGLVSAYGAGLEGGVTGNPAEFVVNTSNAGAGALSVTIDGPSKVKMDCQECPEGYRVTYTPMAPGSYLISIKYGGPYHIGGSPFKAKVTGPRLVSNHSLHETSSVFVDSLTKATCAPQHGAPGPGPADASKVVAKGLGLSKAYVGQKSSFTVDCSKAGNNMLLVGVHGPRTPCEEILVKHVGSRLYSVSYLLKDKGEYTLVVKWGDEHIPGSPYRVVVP
UniProt P29692: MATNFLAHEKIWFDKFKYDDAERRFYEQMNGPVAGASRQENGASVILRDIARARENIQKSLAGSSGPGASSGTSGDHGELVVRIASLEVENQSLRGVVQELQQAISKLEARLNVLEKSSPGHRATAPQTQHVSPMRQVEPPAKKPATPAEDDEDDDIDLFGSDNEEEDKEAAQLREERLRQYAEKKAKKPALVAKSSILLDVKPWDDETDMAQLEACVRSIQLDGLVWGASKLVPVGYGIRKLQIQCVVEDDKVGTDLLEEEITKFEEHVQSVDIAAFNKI
UniProt P23528: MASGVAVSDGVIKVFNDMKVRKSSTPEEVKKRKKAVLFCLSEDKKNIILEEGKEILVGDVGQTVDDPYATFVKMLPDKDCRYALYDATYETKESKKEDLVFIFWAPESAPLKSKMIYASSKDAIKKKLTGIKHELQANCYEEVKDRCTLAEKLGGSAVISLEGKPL
UniProt P12814: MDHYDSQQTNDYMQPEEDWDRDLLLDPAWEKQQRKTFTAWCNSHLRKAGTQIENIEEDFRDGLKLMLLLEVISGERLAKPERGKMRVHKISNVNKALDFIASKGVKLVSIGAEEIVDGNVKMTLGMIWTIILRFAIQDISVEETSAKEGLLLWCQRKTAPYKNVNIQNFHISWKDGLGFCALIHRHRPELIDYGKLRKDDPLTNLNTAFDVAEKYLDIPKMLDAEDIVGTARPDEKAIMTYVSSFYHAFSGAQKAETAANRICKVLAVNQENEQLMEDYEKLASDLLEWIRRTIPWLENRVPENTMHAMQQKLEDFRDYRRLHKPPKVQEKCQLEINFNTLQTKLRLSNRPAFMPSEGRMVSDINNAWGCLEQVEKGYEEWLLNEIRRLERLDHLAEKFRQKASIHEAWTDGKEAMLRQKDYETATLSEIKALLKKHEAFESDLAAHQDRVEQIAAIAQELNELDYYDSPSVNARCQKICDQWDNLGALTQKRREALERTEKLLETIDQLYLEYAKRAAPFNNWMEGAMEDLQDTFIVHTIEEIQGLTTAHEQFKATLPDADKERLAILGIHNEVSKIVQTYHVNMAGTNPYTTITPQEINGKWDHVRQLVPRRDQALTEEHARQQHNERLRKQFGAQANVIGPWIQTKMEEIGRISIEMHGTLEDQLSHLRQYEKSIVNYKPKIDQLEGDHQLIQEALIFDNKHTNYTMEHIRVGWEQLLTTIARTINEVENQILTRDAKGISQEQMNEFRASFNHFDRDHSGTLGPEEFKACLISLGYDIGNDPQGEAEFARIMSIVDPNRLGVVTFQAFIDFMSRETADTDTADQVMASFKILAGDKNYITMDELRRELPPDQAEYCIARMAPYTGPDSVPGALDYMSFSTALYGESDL

Target: GFP-LRRK2 wild-type (UniProt Q5S007)
Assay: affinity purification with mass spectrometry; GFP-TrapA beads, overnight at 4 °C, lysates of RA-differentiated SH-SY5Y cells stably expressing GFP-LRRK2 (or GFP control), unstimulated or stimulated with 100 ng/mL BDNF for 15 min; lysis buffer 20 mM Tris-HCl pH 7.5, 150 mM NaCl, 1 mM EDTA, 1% Tween 20; ten washes; LC-MS/MS

In the case of FLNA (from UniProt P21333 1-2647), the binding is reported as “binds”.

For Eef1d (from UniProt P29692 1-281), the binding was “binds”.

For EEF1A2 (from UniProt Q05639 1-463), the binding was “binds”.

In the case of PCBP1 (from UniProt Q15365 1-356), the binding is reported as “binds”.

CFL1 (from UniProt P23528 1-166) was tested, and the binding was “binds”.

ACTN1 (from UniProt P12814 1-892) was tested, and the binding was “binds”.

In the case of drebrin (from UniProt Q16643 1-649), the binding is reported as “binds”.
